Among the data in PubChem BioAssay AID248 (DTP/NCI, 2004) are survivor count and T/C values, retold here.

The list shows only some results of the screen, not a fair sample: it is rich in T/C values a quarter to a half above the control, in often repeated tests (any T/C) and in doses without a T/C. Other doses and runs of a compound stand elsewhere. T/C is the treated group as % of the vehicle group. Some doses have a count of surviving animals in place of a T/C: the source holds a T/C of zero for them, seemingly a mark for toxic or unscored doses. Some survivor counts are full or nearly so, which does not show that the dose was tolerated: survival well below the control is almost never listed, so the zero probably covers shortened survival too. Survivors were counted at the toxicity check, usually on the fifth day, unless a day is given; later deaths do not show. Schedules are NCI's codes, taken here to give the interval after Q, in days (D) or hours (H), and the number of doses after X. Some schedule codes hold Z or #, which are not explained here. Some entries were tested several times; the results are listed from low to high. Where survival is the endpoint, this PubChem deposit counts one and a half times the control or more as active, and values a quarter to a half above the control carry no call in these data; other NCI protocols may use other cut-offs. Some T/C values carry the count of animals alive at the toxicity check (mostly the fifth day); where none is given, no animal had died by that day.

This test relates to L1210 leukemia ip in BDF1 mice, survival T/C. Kind of test: NCI In Vivo Anticancer Drug Screen. Data for tumor model L1210 Leukemia (intraperitoneal) in B6D2F1 (BDF1) mice. The following applies: T/C endpoint: mean survival time, higher T/C = longer survival.
Where [1] appears, read: dose: 400.0 mg/kg/injection, schedule: Q04DX003 (ip), vehicle: saline with Tween-80.
[2] abbreviates: dose: 100.0 mg/kg/injection, schedule: Q04DX003 (ip), vehicle: saline.
[3] abbreviates: dose: 200.0 mg/kg/injection, schedule: Q04DX003 (ip), vehicle: saline.
Where [4] appears, read: dose: 400.0 mg/kg/injection, schedule: Q04DX003 (ip), vehicle: saline.
[5] abbreviates: dose: 400.0 mg/kg/injection, schedule: Q01DX009 (ip), vehicle: Klucel (hydroxypropylcellulose) (HPC).
Where [6] appears, read: dose: 300.0 mg/kg/injection, schedule: Q01DX Z (ip), vehicle: saline.
[7] abbreviates: dose: 400.0 mg/kg/injection, schedule: Q04DX002 (ip), vehicle: Klucel (hydroxypropylcellulose) (HPC).
The mark [8] stands for this setting: dose: 400.0 mg/kg/injection, schedule: Q01DX009 (ip), vehicle: saline with Tween-80.

`Clc1ccc2nc(CI)c(CI)nc2c1`: the survivor count was 4 of 6 (dose: 25.0 mg/kg/injection, schedule: Q01DX009 (ip), vehicle: acetone); 1 of 6 (dose: 50.0 mg/kg/injection, schedule: Q04DX003 (ip), vehicle: acetone); 6 of 6 (dose: 100.0 mg/kg/injection, schedule: Q04DX003 (ip), vehicle: saline with Tween-80); 6 of 6 (dose: 200.0 mg/kg/injection, schedule: Q04DX003 (ip), vehicle: saline with Tween-80); 0 of 6 under setting [1].

For the molecule `CN(C)CC/C=C1\c2ccccc2Sc2ccc(C(F)(F)F)cc21`, the survivor count runs as follows: (dose: 6.25 mg/kg/injection, schedule: Q01DX009 (ip), vehicle: saline) 0 of 6; (dose: 12.5 mg/kg/injection, schedule: Q01DX009 (ip), vehicle: saline) 1 of 6; (dose: 25.0 mg/kg/injection, schedule: Q01DX009 (ip), vehicle: saline) 6 of 6; (dose: 25.0 mg/kg/injection, schedule: Q04DX003 (ip), vehicle: saline) 1 of 4; (dose: 31.0 mg/kg/injection, schedule: Q01DX Z (ip), vehicle: other) 2 of 6; (dose: 50.0 mg/kg/injection, schedule: Q01DX009 (ip), vehicle: saline) 3 of 6. For the same molecule, the survivor count runs as follows: (dose: 50.0 mg/kg/injection, schedule: Q04DX003 (ip), vehicle: saline) 0 of 4; (dose: 62.0 mg/kg/injection, schedule: Q01DX Z (ip), vehicle: other) 0 of 6; under setting [2], 0 of 4 and 3 of 6; under setting [3], 0 of 4 and 0 of 6; under setting [4], 0 of 4. For the same molecule, the T/C is, setting by setting: (dose: 14.0 mg/kg/injection, schedule: Q01DX Z (ip), vehicle: other) 126 % of control; (dose: 21.0 mg/kg/injection, schedule: Q01DX Z (ip), vehicle: carboxymethylcellulose (CMC)) 128 % of control.

In the case of `CN(C)c1ncnc2c1ncn2C1OC(CO)C2NP(=O)(N(CCCl)CCCl)OC21` (stereo not drawn), the survivor count (dose: 300.0 mg/kg/injection, schedule: Q01DX001 (ip), vehicle: saline) is reported as 3 of 6.

Take `CC(=O)CCN1CCCCC1`: under “dose: 40.0 mg/kg/injection, schedule: Q04DX003 (ip), vehicle: saline”, the T/C is 128 % of control. In addition, the survivor count is 5 of 6 (dose: 80.0 mg/kg/injection, schedule: Q04DX003 (ip), vehicle: saline); 6 of 6 under setting [2]; 6 of 6 under setting [3]; 6 of 6 under setting [4].

Consider `CC1=CC(=O)C=CC1(C)C(Cl)(Cl)Cl` (stereo not drawn), for which the survivor count under setting [5] was 0 of 5.

On to `NCC(=O)NC1(C(=O)O)CCCC1`, for which the T/C by setting is: (dose: 54.0 mg/kg/injection, schedule: Q01DX Z (ip), vehicle: carboxymethylcellulose (CMC)) 126 % of control; (dose: 60.0 mg/kg/injection, schedule: Q01DX Z (ip), vehicle: other) 126 % of control; (dose: 80.0 mg/kg/injection, schedule: Q01DX Z (ip), vehicle: carboxymethylcellulose (CMC)) 129 % of control; (dose: 80.0 mg/kg/injection, schedule: Q01DX Z (ip), vehicle: saline) 128 % of control; (dose: 100.0 mg/kg/injection, schedule: Q01DX Z (ip), vehicle: saline) 134 % of control; (dose: 120.0 mg/kg/injection, schedule: Q01DX015 (ip), vehicle: saline) 137 % of control. For the same molecule, the T/C (dose: 120.0 mg/kg/injection, schedule: Q01DX Z (ip), vehicle: other) is 146 and 148 % of control; the T/C (dose: 180.0 mg/kg/injection, schedule: Q01DX015 (ip), vehicle: saline) is 137 % of control; the T/C (dose: 180.0 mg/kg/injection, schedule: Q01DX Z (ip), vehicle: saline) is 139 % of control [5 of 6 alive]; the T/C (dose: 240.0 mg/kg/injection, schedule: Q01DX017 (ip), vehicle: saline) is 132 % of control; the T/C (dose: 240.0 mg/kg/injection, schedule: Q01DX Z (ip), vehicle: other) is 125 % of control; the T/C (dose: 264.0 mg/kg/injection, schedule: Q04DX003 (ip), vehicle: saline) was 131 and 146 % of control. Moreover, the T/C under setting [4] was 138 and 146 % of control. For the same molecule, the survivor count (dose: 960.0 mg/kg/injection, schedule: Q01DX Z (ip), vehicle: other) was 2 of 6.

In the case of `O=C(Nc1ccc(C2=NCCN2)cc1)c1ccc(C(=O)Nc2ccc(C3=NCCN3)cc2)nc1`, the T/C is 130 % of control (dose: 4.0 mg/kg/injection, schedule: Q01DX Z (ip), vehicle: saline); 143 % of control (dose: 8.0 mg/kg/injection, schedule: Q01DX Z (ip), vehicle: saline); 138 % of control (dose: 30.0 mg/kg/injection, schedule: Q01DX Z (ip), vehicle: carboxymethylcellulose (CMC)). In addition, for the setting “dose: 120.0 mg/kg/injection, schedule: Q01DX Z (ip), vehicle: carboxymethylcellulose (CMC)”, the survivor count is listed as 6 of 6.

In the case of `O/N=C(/CBr)c1ccccc1`, the survivor count reads like this: (dose: 100.0 mg/kg/injection, schedule: Q04DX002 (ip), vehicle: gum acacia) 0 of 3; (dose: 200.0 mg/kg/injection, schedule: Q04DX002 (ip), vehicle: gum acacia) 0 of 3.

With `Nc1nc(=S)c2[nH]c(N=Nc3ccc(S(=O)(=O)Nc4ncccn4)cc3)nc2[nH]1`, the T/C was 148 % of control (dose: 45.0 mg/kg/injection, schedule: Q04DX003 (ip), vehicle: Klucel (hydroxypropylcellulose) (HPC)); 132 % of control (dose: 65.0 mg/kg/injection, schedule: Q04DX003 (ip), vehicle: Klucel (hydroxypropylcellulose) (HPC)); 128 and 134 % of control (dose: 200.0 mg/kg/injection, schedule: Q04DX003 (ip), vehicle: Klucel (hydroxypropylcellulose) (HPC)). Moreover, the survivor count is, setting by setting: under setting [5], 1 of 6; under setting [1], 1 of 6.

`NCC(=O)NCCCCCCCCCCNC(=O)CN`: under setting [6], the survivor count is 3 of 6.

Take `COc1ccc(-c2cc(C(=O)O)c3cccc(C(F)(F)F)c3n2)cc1`: the survivor count is 6 of 6 under setting [3] and 0 of 6 under setting [4].

`O=C(Nc1ccccc1)Oc1ccc(C2CCCCC2)cc1`: the survivor count under setting [7] was 3 of 3.

As for `COc1cc2c(c(Oc3ccc(C)cc3)c1)CN(C)CC2`, the survivor count under setting [3] is on record as 3 of 6 and the survivor count under setting [4] is 0 of 6.

In the case of `O=S1(=O)CC(Cl)C(I)C1` (stereo not drawn), the survivor count under setting [8] was 0 of 6.

With `CC1c2c(c(-c3ccccc3)c3ccccc3c2-c2ccccc2)S1(=O)=O` (stereo not drawn), the T/C under setting [7] was 125 % of control.

With `CN(C)C=Nc1ccc(Cl)c2ccccc12`, the survivor count (dose: 400.0 mg/kg/injection, schedule: Q04DX003 (ip), vehicle: Klucel (hydroxypropylcellulose) (HPC)) is listed as 5 of 6.

`COC(=O)/C(=C/c1ccccc1)CBr`: the survivor count (dose: 200.0 mg/kg/injection, schedule: Q01DX009 (ip), vehicle: saline with Tween-80) is 3 of 3.

In the case of `CCCCCCCC(C)NCCOC(=O)c1ccc(N)cc1` (stereo not drawn), the survivor count (dose: 300.0 mg/kg/injection, schedule: Q01DX001 (ip), vehicle: other) is on record as 0 of 6.

On to `CC(C)(C)OOC(=O)c1ccccc1`, for which the survivor count (dose: 150.0 mg/kg/injection, schedule: Q01DX009 (ip), vehicle: Klucel (hydroxypropylcellulose) (HPC)) is on record as 6 of 6 and the survivor count (dose: 300.0 mg/kg/injection, schedule: Q01DX009 (ip), vehicle: Klucel (hydroxypropylcellulose) (HPC)) is on record as 6 of 6.

For `CC1(c2ccco2)C(=O)NC(=O)N1C(=O)CCl` (stereo not drawn), the survivor count under setting [8] is recorded as 0 of 6.

In the case of `NCCCCC(N)C(=O)NCCCCCCNCCCCCCNC(=O)C(N)CCCCN` (stereo not drawn), the survivor count under setting [6] is 0 of 6 and the survivor count (dose: 400.0 mg/kg/injection, schedule: Q01DX001 (ip), vehicle: saline) is reported as 1 of 6.

Turning to `COc1cccc(/C=N/N=C(N)N)c1`, the survivor count is listed as 0 of 6 (dose: 120.0 mg/kg/injection, schedule: Q01DX Z (ip), vehicle: saline) and 1 of 6 (dose: 240.0 mg/kg/injection, schedule: Q01DX Z (oral), vehicle: saline).
